For one compound, CC50 results are on record in article PMC7376718, “Flavonoids isolated from the South African weed Chromolaena odorata (Asteraceae) have pharmacological activity against uropathogens” (BMC Complementary Medicine and Therapies, 2020).

Structures are written as SMILES. Read-outs that look alike come from different tables or passages of the source. Some results are limits rather than exact numbers.

Data set [1] in a line: in vitro. As to the method:
(§1) Different concentrations of the compounds ranging from 0.003 to 0.2 mg/mL were tested for cytotoxicity against three cell lines; Vero monkey kidney, C3A and Caco2. Vero cells were grown and maintained in MEM, supplemented with 0.1% gentamicin and 5% foetal calf serum, while Caco2 and C3A cells were grown and maintained in DMEM supplemented with 10% foetal calf serum, 1% non-essential amino acids and 1% penicillin-streptomycin. All cells were incubated in a 5% CO2 incubator at 37 °C. Doxorubicin chloride was used as positive control while 10% DMSO used in dissolving the test samples was used as the negative control. The 3-(4,5-dimethylthiazol)-2,5-diphenyl tetrazolium bromide (MTT) assay described by Mosmann with modification by McGaw et al. was used to determine the cytotoxicity of the test samples. The lethal concentration (LC50) value was calculated as the concentration of tested sample resulting in a 50% reduction of absorbance compared to untreated cells. Selectivity index (SI) values were calculated against the MIC using the formula: […]

Data set [2] is described as follows: in vitro. As to the method:
as §1
This is another data set of the same source.

As for `O=C(O)c1cn(C2CC2)c2cc(N3CCNCC3)c(F)cc2c1=O` [Ciprofloxacin, ciprofloxacin, reference compound], the CC50 in data set [1] and in data set [2] was greater than 200 µg/mL in each case.
